Experimental data reported in PubChem BioAssay AID2685 (National Center for Advancing Translational Sciences (NCATS), 2010).
Some of the results follow. The main result of the screen is listed elsewhere. These columns were measured beside it and carry no call. The list favours compounds with an active or inconclusive main result. Potencies come from curve fits of mixed quality, noted in brackets.

Assay: qHTS Assay for Lipid Storage Modulators in Drosophila S3 Cells;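 as to cell number change: cells counted by Cell Tracker Red CMTPX staining in the red channel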
Details: BODIPY lipid droplet fluorescence, 18-24 h; for cell number change: measured here: cell count max response, cells fed with added oleic acid
Procedure, shortened: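 Laser-scanning cytometry quantifies lipid droplet accumulation (500–530 nm total intensity; droplet/cell object ratio) in oleic acid-fed (400 uM added) Drosophila S3 cells treated with a concentration series. 20 uM Triacsin C defined 100% inhibition.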

[1] = measured here: lipid fluorescence (Fed channel) AC50, cells fed with added oleic acid
[2] = measured here: cell number channel AC50, cells fed with added oleic acid

Compound	cell number change	AC50 [1]	AC50 [2]
CC1CCC(NC(=O)C2CC(=O)N(c3ccc4c(c3)OCCO4)C2)CC1 (stereo not drawn)	0.206%	4.11 nM [rising, partial curve, poor fit]	
O=C(c1ccco1)N1CCN(CCCCOc2ccc(F)cc2)CC1	-1.42%		6510 nM [falling, single point]
CCN(c1ccc(NC(=O)COC(=O)c2cccs2)cc1)C(C)C	16.8%	6510 nM [rising, single point]	
COc1ccc(CC(=O)NNC(=O)COc2ccc(Cl)cc2C)cc1S(=O)(=O)N1CCOCC1	-14.9%		
Cn1ncc2c1ncn1nc(COc3ccc4ccccc4c3)nc21	-0.194%	92 nM [rising, full curve, poor fit]	
COC(C(=O)N/N=C(\C)c1ccc(C)cc1)c1ccccc1 (stereo not drawn)	-35.7%		20600 nM [falling, partial curve]
Cc1ccccc1C(=O)Nc1ccccc1C(=O)NCC(C)C	-19.3%	517 nM [falling, partial curve]	
COCCNC(=O)C(c1ccc(F)cc1)N(CCOC)C(=O)CCC(=O)Nc1nccs1 (stereo not drawn)	-3.21%		
COC(=O)c1ccc(NC(=O)CSc2nnc(COc3ccccc3)n2C)cc1	-218%	651 nM [falling, single point]	
NC(=O)c1nsc(C(=O)N(Cc2cccnc2)C(C(=O)NC2CCCC2)c2ccc(F)cc2)c1N (stereo not drawn)	-3.48%		
COc1cccc(C(=O)Cn2c(NCCCO)nc3ccccc32)c1	13.5%	29100 nM [falling, single point]	
CC(=O)c1cccc(NC(=O)C(C)OC(=O)c2ccc(-n3cnnn3)cc2)c1 (stereo not drawn)	-10.5%	206 nM [rising, partial curve, poor fit]	
O=C(COC(=O)c1cccnc1)NC1CCCc2ccccc21 (stereo not drawn)	17.9%		
CC(c1c(O)c2ccccc2[nH]c1=O)C1(C)CCC(O)C(C)(C)O1 (stereo not drawn)	-20.8%	32600 nM [falling, single point]	
COc1ccc(NC(=O)Nc2ccc3c(c2)N(C)C(=O)CS3)cc1Cl	-15.5%	164 nM [falling, partial curve, poor fit]	73.1 nM [falling, full curve, poor fit]
CCN1CCN(c2cc(C)c3cc(NC(=S)N(C)Cc4ccccc4)ccc3n2)CC1		29100 nM [rising, single point]	
COc1ccccc1NC(=O)CN1C(=O)NC2(CCCCCCC2)C1=O	-14.8%	7080 nM [falling, full curve, poor fit]	
CCOC(=O)c1ccc(P(=O)(c2ccccc2)c2ccccc2)cc1	2.92%	20600 nM [rising, single point]	
Cc1c(C(=O)N2CCCCC2)c(S(=O)(=O)NCCc2ccc(S(N)(=O)=O)cc2)c(C)n1C	1.48%	651 nM [falling, single point]	
COc1ccccc1N1CCN(C(=O)c2sc3nc(-c4ccccc4)cn3c2C)CC1	18.8%		

Copied from the list:
Value of `COC(=O)c1ccc(NC(=O)CSc2nnc(COc3ccccc3)n2C)cc1` under AC50 [1]: 651 nM [falling, single point]
Value of `COc1cccc(C(=O)Cn2c(NCCCO)nc3ccccc32)c1` under cell number change: 13.5%
Value of `NC(=O)c1nsc(C(=O)N(Cc2cccnc2)C(C(=O)NC2CCCC2)c2ccc(F)cc2)c1N` (stereo not drawn) under cell number change: -3.48%

(list continues)

Compound	cell number change	AC50 [1]	AC50 [2]
Cc1cc(N2CCOCC2)nc2ccc(NC(=S)N3CCN(Cc4ccccc4)CC3)cc12	-22.9%		411 nM [falling, full curve, poor fit]
COC(=O)C1=C(Nc2ccc(OC)cc2)C=C(C)C(C(=O)OC)C1c1ccc(C)cc1 (stereo not drawn)	-59.3%		
CCCOc1cc(N(CC)CC)ccc1/C=C(/C#N)c1nc2ccc(C)cc2[nH]1	-98.4%	411 nM [falling, full curve]	2590 nM [falling, full curve]
CCN1CCN(C2=C(NS(=O)(=O)c3ccc(Br)cc3)C(=O)c3ccccc3C2=O)CC1	-18.6%	29100 nM [falling, single point]	
Cc1ccc(-c2cc(C(=O)O)n[nH]2)s1	-20.8%		2910 nM [falling, single point]
O=C(c1cnc2n(c1=O)CCS2)N1CCN(c2ccc([N+](=O)[O-])cc2)CC1	-0.613%	7310 nM [falling, partial curve]	1640 nM [falling, partial curve, poor fit]
CSc1nc2ccc(S(=O)(=O)N3CCCCC3)cc2s1	20.7%		
CCOC(=O)CSc1cc(C)nc(NC(C)=O)n1	1.78%	73.1 nM [falling, full curve, poor fit]	
Cc1sc2ncnc(OCC(=O)NC(C)C)c2c1C		6510 nM [falling, single point]	
COc1cccc(OCc2cc(C(=O)N3CCN(c4ccccc4O)CC3)no2)c1	-1.13%	6510 nM [rising, partial curve, poor fit]	4.11 nM [rising, full curve, poor fit]
O=C(NC1CS(=O)(=O)CC1NCc1ccco1)c1ccccc1 (stereo not drawn)	30.6%	4110 nM [falling, full curve, poor fit]	29100 nM [rising, single point]
Clc1ccc(-c2nnc3sc(-c4ccc(Br)o4)nn23)cc1	88.2%	206 nM [rising, full curve, poor fit]	184 nM [rising, full curve, poor fit]
CC(=O)Nc1cccc(N2CCCC2=O)c1	3.94%	32600 nM [rising, single point]	
CCN1CCN(C(=O)c2ccccc2NS(=O)(=O)c2ccc(Cl)cc2)CC1			116 nM [rising, single point]
CN1CCN(CCCNC(=O)c2ccc(Cn3c(=S)[nH]c4ccc(Br)cc4c3=O)cc2)CC1	1.68%		
Cc1ccc(NC(=S)Nc2ccc(F)cc2)c(C)c1	60.7%		16400 nM [rising, single point]
Cc1ccc(N2CC(C(=O)OCC(=O)c3ccc(C)c([N+](=O)[O-])c3)CC2=O)cc1 (stereo not drawn)	14.8%	1160 nM [falling, full curve]	
O=C(COC(=O)c1cncc(Br)c1)NCc1ccccc1Cl	9.07%	20600 nM [falling, partial curve, poor fit]	
COC(=O)C1=C(C)OC(N)=C(C#N)C1c1cc2cc(C)ccc2nc1Cl (stereo not drawn)	-5.57%	58 nM [falling, full curve, poor fit]	
